Experimental data taken from patent publication US11008291B2, “Methods of forming carbene-functionalized composite materials” (Queen's University at Kingston, priority 2015, dated 2021).

Assay: Protection of Cu and Ni surfaces from oxidation in air by NHC monolayer (XPS)
Conditions: a week in air; for Protection of copper surface from oxidation by NHC layer: Cu foil coated from the precursor/carbene; for Protection of Ni from oxidation by NHC layer: Ni foil coated from the precursor/carbene

CC(C)N1[C]N(C(C)C)c2ccccc21 [Compound 2a, 1,3-dihydro-1,3-bisisopropylbenzimidazol-2-ylidene]
Protection of copper surface from oxidation by NHC layer: partially protects
Protection of Ni from oxidation by NHC layer: fully protects

CC(C)n1c[n+](C(C)C)c2ccccc21 [Compound 3a, 1,3-Diisopropylbenzimidazolium hydrogen carbonate]
Protection of copper surface from oxidation by NHC layer: partially protects
Protection of Ni from oxidation by NHC layer: fully protects
